Data taken from the supplement of paper PMC10849652.
The other results are listed elsewhere or left out.

Protein sequences, listed by entry. Tags and fused reporters are not part of them. Lines headed by an entry give the natural chain unless they say otherwise; changes in a name come on top.
UniProt Q9H900: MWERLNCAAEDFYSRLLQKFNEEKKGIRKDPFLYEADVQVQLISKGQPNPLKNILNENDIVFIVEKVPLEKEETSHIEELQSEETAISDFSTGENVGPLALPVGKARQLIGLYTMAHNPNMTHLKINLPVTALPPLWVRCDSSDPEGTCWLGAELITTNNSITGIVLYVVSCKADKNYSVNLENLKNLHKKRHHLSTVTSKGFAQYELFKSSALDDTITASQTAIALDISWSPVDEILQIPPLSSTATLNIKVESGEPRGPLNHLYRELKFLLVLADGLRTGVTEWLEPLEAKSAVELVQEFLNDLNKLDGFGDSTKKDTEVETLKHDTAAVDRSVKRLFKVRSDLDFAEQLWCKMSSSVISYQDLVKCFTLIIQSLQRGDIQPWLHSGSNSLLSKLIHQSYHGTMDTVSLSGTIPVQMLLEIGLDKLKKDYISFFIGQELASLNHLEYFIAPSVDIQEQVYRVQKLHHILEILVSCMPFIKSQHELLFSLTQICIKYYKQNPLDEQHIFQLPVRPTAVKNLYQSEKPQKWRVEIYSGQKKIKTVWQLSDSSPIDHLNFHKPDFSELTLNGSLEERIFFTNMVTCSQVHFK
UniProt O95229: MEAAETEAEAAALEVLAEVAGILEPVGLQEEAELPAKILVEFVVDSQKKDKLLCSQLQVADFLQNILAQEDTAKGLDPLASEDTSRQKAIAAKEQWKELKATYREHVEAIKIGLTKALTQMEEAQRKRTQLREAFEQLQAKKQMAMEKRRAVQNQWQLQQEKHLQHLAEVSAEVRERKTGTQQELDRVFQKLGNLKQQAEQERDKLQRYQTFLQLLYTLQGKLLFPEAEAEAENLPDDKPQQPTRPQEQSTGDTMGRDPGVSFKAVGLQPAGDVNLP

Molecular target: ZWILCH (UniProt Q9H900)
Test: log2 fold change, soluble protein after heating vs DMSO (PISA); higher = thermal stabilisation; K562 cells, 10 uM, 30 min; active = over 0.2 and 3.5 SD of the protein, either way, in both replicates (recomputed)
Outline: (§1)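 K562 cells at 2×10^6 cells/mL were treated for 30 min with 10 μM compound, and aliquots were heated for 3 min over 48°C-58°C before pooling. Extraction used PBS with 0.5% NP-40 at 4°C, and soluble protein was the supernatant after 21,000xg for 90 min, measured by TMTpro 16plex LC-MS/MS with channel sums equalised. Thermal stability values, relative to control samples and from duplicates, are log2 fold changes.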

log2 fold change, inactive:
CN1CCC(CNc2ccc3ncc(-c4cccc(OC(F)(F)F)c4)n3n2)CC1 -0.085
Cn1c2cc(S(C)=O)sc2c2cnn(Cc3cccc(N)c3)c(=O)c21 (stereo not given) -0.04
CN1CCN(CCOc2cc(OC3CCOCC3)c3c(Nc4c(Cl)ccc5c4OCO5)ncnc3c2)CC1 [saracatinib] -0.012
Cc1ccc(NC(=O)c2ccc(CN3CC[C@H](N(C)C)C3)c(C(F)(F)F)c2)cc1Nc1nccc(-c2cncnc2)n1 [bafetinib] -0.031
CNCc1ccc(-c2[nH]c3cc(F)cc4c3c2CCNC4=O)cc1 [rucaparib] -0.051
COc1cc(Nc2ncc3c(n2)-c2ccc(Cl)cc2C(c2c(F)cccc2OC)=NC3)ccc1C(=O)O [alisertib] -0.024
Cc1ccc(NC(=O)c2cccc(N(C)C)c2)cc1NC(=O)c1ccc(O)cc1 0.238
Cn1cc(-c2ccc3c(c2)CCN3C(=O)Cc2cccc(C(F)(F)F)c2)c2c(N)ncnc21 -0.057
COC(=O)N[C@@H](C)CNc1nccc(-c2cn(C(C)C)nc2-c2cc(Cl)cc(NS(C)(=O)=O)c2F)n1 [encorafenib] 0.076
CC[C@@H]1C(=O)N(C)c2cnc(Nc3ccc(C(=O)NC4CCN(C)CC4)cc3OC)nc2N1C1CCCC1 -0.078
CCCc1cc(C)[nH]c(=O)c1CNC(=O)c1cc(-c2ccnc(N3CCN(C)CC3)c2)cc2c1cnn2C(C)C 0.004
O=C(Nc1nc2ccccc2n1CCN1CCOCC1)c1cccc([N+](=O)[O-])c1 [IRAK-1-4 Inhibitor I] -0.042
C=CC(=O)N1CCC[C@@H](n2nc(-c3ccc(Oc4ccccc4)cc3)c3c(N)ncnc32)C1 [ibrutinib] -0.014
COc1cc2ncnc(Nc3ccc(F)c(Cl)c3)c2cc1OCCCN1CCOCC1 [gefitinib] 0.125
c1cc(OCCN2CCCCC2)cc(-c2n[nH]c3ccc(-c4nnc[nH]4)cc23)c1 -0.048
Fc1ccc(Cl)cc1-c1nc(Nc2ccncc2)c2nccnc2n1 -0.013
CCn1cc(-c2ccnc3[nH]c(-c4cccc(CN(C)C)c4)cc23)c(-c2ccc(NC(=O)N(C)C)cc2)n1 0.01
NCC(=O)Nc1ccc(-n2nc(C(F)(F)F)cc2-c2ccc3c(ccc4ccccc43)c2)cc1 -0.068
CC(C)(O)CC(=O)NCCn1ccc2ncnc(Nc3ccc(Oc4cccc(C(F)(F)F)c4)c(Cl)c3)c21 0.012
CON(C)C(=O)N1N=C(c2cc(F)ccc2F)S[C@@]1(CCCN)c1ccccc1 [filanesib] 0.016
Cc1cc(Nc2cc(CN3CCOCC3)c3nc(C)c(Cc4ccc(Cl)cc4F)n3n2)n[nH]1 [gandotinib] -0.12
O=C(O)c1ccc2c(c1)nc(Nc1cccc(Cl)c1)c1ccncc12 [silmitasertib] 0.059
CCN(CCCOc1ccc2c(Nc3cc(CC(=O)Nc4cccc(F)c4)[nH]n3)ncnc2c1)CCOP(=O)(O)O [barasertib] 0.064
Nc1ccccc1NC(=O)c1ccc(CNC(=O)OCc2cccnc2)cc1 [entinostat] 0.002
Oc1cc(-c2nc(-c3ccccc3)[nH]c2-c2ccncc2)ccc1Cl -0.002
CC[C@H](C)n1cc(C)c2c(C(=O)NCc3c(C)cc(C)[nH]c3=O)cc(-c3ccc(N4CCNCC4)nc3)cc21 0.048
CNC(=O)c1ccc(Nc2ncc(C(F)(F)F)c(NCc3nccnc3N(C)S(C)(=O)=O)n2)cc1 [defactinib] -0.007
Cc1cc(SCc2sc(-c3ccc(C(F)(F)F)cc3)nc2C)ccc1OCC(=O)O 0.027
C[C@@H]1COCCN1c1cc(C2(S(C)(=O)=O)CC2)nc(-c2cccc3[nH]ccc23)n1 -0.04
C[C@@H](Oc1cc(-c2cnn(C3CCNCC3)c2)cnc1N)c1c(Cl)ccc(F)c1Cl [crizotinib] -0.068

Molecular target: ZWINT (UniProt O95229)
Test: as above
Outline: as §1

log2 fold change, inactive:
CN1CCC(CNc2ccc3ncc(-c4cccc(OC(F)(F)F)c4)n3n2)CC1 0.035
Cn1c2cc(S(C)=O)sc2c2cnn(Cc3cccc(N)c3)c(=O)c21 (stereo not given) 0.014
CN1CCN(CCOc2cc(OC3CCOCC3)c3c(Nc4c(Cl)ccc5c4OCO5)ncnc3c2)CC1 [saracatinib] 0.024
Cc1ccc(NC(=O)c2ccc(CN3CC[C@H](N(C)C)C3)c(C(F)(F)F)c2)cc1Nc1nccc(-c2cncnc2)n1 [bafetinib] -0.012
CNCc1ccc(-c2[nH]c3cc(F)cc4c3c2CCNC4=O)cc1 [rucaparib] 0.033
COc1cc(Nc2ncc3c(n2)-c2ccc(Cl)cc2C(c2c(F)cccc2OC)=NC3)ccc1C(=O)O [alisertib] -0.024
Cc1ccc(NC(=O)c2cccc(N(C)C)c2)cc1NC(=O)c1ccc(O)cc1 0.006
Cn1cc(-c2ccc3c(c2)CCN3C(=O)Cc2cccc(C(F)(F)F)c2)c2c(N)ncnc21 -0.057
COC(=O)N[C@@H](C)CNc1nccc(-c2cn(C(C)C)nc2-c2cc(Cl)cc(NS(C)(=O)=O)c2F)n1 [encorafenib] 0.065
CC[C@@H]1C(=O)N(C)c2cnc(Nc3ccc(C(=O)NC4CCN(C)CC4)cc3OC)nc2N1C1CCCC1 0.017
CCCc1cc(C)[nH]c(=O)c1CNC(=O)c1cc(-c2ccnc(N3CCN(C)CC3)c2)cc2c1cnn2C(C)C 0.004
O=C(Nc1nc2ccccc2n1CCN1CCOCC1)c1cccc([N+](=O)[O-])c1 [IRAK-1-4 Inhibitor I] -0.043
C=CC(=O)N1CCC[C@@H](n2nc(-c3ccc(Oc4ccccc4)cc3)c3c(N)ncnc32)C1 [ibrutinib] -0.031
COc1cc2ncnc(Nc3ccc(F)c(Cl)c3)c2cc1OCCCN1CCOCC1 [gefitinib] -0.027
c1cc(OCCN2CCCCC2)cc(-c2n[nH]c3ccc(-c4nnc[nH]4)cc23)c1 -0.082
Fc1ccc(Cl)cc1-c1nc(Nc2ccncc2)c2nccnc2n1 -0.063
CCn1cc(-c2ccnc3[nH]c(-c4cccc(CN(C)C)c4)cc23)c(-c2ccc(NC(=O)N(C)C)cc2)n1 0.007
NCC(=O)Nc1ccc(-n2nc(C(F)(F)F)cc2-c2ccc3c(ccc4ccccc43)c2)cc1 -0.009
CC(C)(O)CC(=O)NCCn1ccc2ncnc(Nc3ccc(Oc4cccc(C(F)(F)F)c4)c(Cl)c3)c21 -0.033
CON(C)C(=O)N1N=C(c2cc(F)ccc2F)S[C@@]1(CCCN)c1ccccc1 [filanesib] 0.02
Cc1cc(Nc2cc(CN3CCOCC3)c3nc(C)c(Cc4ccc(Cl)cc4F)n3n2)n[nH]1 [gandotinib] 0.011
O=C(O)c1ccc2c(c1)nc(Nc1cccc(Cl)c1)c1ccncc12 [silmitasertib] 0.069
CCN(CCCOc1ccc2c(Nc3cc(CC(=O)Nc4cccc(F)c4)[nH]n3)ncnc2c1)CCOP(=O)(O)O [barasertib] -0.008
Nc1ccccc1NC(=O)c1ccc(CNC(=O)OCc2cccnc2)cc1 [entinostat] 0.012
Oc1cc(-c2nc(-c3ccccc3)[nH]c2-c2ccncc2)ccc1Cl 0.01
CC[C@H](C)n1cc(C)c2c(C(=O)NCc3c(C)cc(C)[nH]c3=O)cc(-c3ccc(N4CCNCC4)nc3)cc21 0.027
CNC(=O)c1ccc(Nc2ncc(C(F)(F)F)c(NCc3nccnc3N(C)S(C)(=O)=O)n2)cc1 [defactinib] -0.034
Cc1cc(SCc2sc(-c3ccc(C(F)(F)F)cc3)nc2C)ccc1OCC(=O)O -0.019
C[C@@H]1COCCN1c1cc(C2(S(C)(=O)=O)CC2)nc(-c2cccc3[nH]ccc23)n1 -0.073
C[C@@H](Oc1cc(-c2cnn(C3CCNCC3)c2)cnc1N)c1c(Cl)ccc(F)c1Cl [crizotinib] 0.071
